Results: PubChem BioAssay AID1487 (National Center for Advancing Translational Sciences (NCATS), 2009)
The campaign covered roughly 200,000 compounds. About 25 (0.01%) were called active. This list was built around the results that the source calls inconclusive (neither active nor inactive); the mix of calls is not that of the screen. The call rests on the fitted dose curve; in most records, active means well fitted inhibition curve with a large enough effect in the signal ratio, with a control signal flat (not every such curve was filed as active); inconclusive means small, poorly fitted or top-dose-only effect, or effect the other way, or a change in a side signal; inactive means flat fitted curve, though single readings scatter; the % refers to the signal ratio. A potency beside an inconclusive call is a rough fit, not a confirmed value.

Test: qHTS Assay for Modulators of Lamin A Splicing
Conditions: HeLa LMNA splicing GFP/RFP minigene ratio, 48 h; ratio change, negative = inhibition: at 46.1 µM (top of the series) unless noted
In short: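 S3 HeLa stable clones carrying a lamin A-EGFP splicing minigene plus DsRed2 were seeded at 600 cells/well in Opti-MEM with 2% FBS, pin-dosed and incubated 48 h at 37°C. Acumen cytometry (488 nm) gave the GFP/RFP total-intensity ratio.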
On the % scale 0 is the no-effect control and ±100 the full control effect; potency means the concentration at half of the fitted maximal effect.

Row | Compound | ratio change, negative = inhibition | Potency
1 | CN(C)c1ccc(C(CNC(=O)c2ccccc2Cl)N2CCc3ccccc32)cc1 (configuration not stated) | inconclusive: -35.4% [at 46 µM] | 
2 | COc1ccc(NC(=S)N(CCCN2CCCCC2)Cc2cccs2)cc1 | inactive: -7.66% | 
3 | CC(C)CC(=O)NC(Nc1ccc([N+](=O)[O-])cc1)C(Cl)(Cl)Cl (configuration not stated) | inconclusive: -28.6% | 
4 | Cc1cc2c(C)nc(Cc3ccccc3)nc2o1 | inactive: 2.17% | 
5 | CCN(C(=O)CSc1nc2ccccc2nc1Cc1cccc(OC)c1)c1cccc(C)c1 | inconclusive: -12.3% [at 46 µM] | 
6 | O=C(COc1ccc(Cl)cc1)Nc1ccc(O)c(-c2nc3ccccc3s2)c1 | inconclusive: 36.4% [at 46 µM] | 
7 | COc1cc([C@H]2c3cc4c(cc3[C@@H](O[C@H]3O[C@H]5CO[C@@H](C)O[C@H]5[C@@H](O)[C@@H]3O)[C@@H]3COC(=O)[C@H]23)OCO4)cc(OC)c1O |  | inconclusive: 0.0355 µM [falling, full curve]
8 | CCOC(=O)C1(Cc2cccc(OC)c2)CCN(Cc2ccc(OC)c(OC)c2)CC1 | inconclusive: -9.03% [at 46 µM] | 
9 | O=C(COc1nc2ccccc2nc1N1CCOCC1)Nc1ccc(S(=O)(=O)N2CCCC2)cc1 | inconclusive: -1.91% | 
10 | COc1cccc(CNc2ccc([N+](=O)[O-])cc2C)c1 | inconclusive: 22.8% [at 46 µM] | 
11 | CCC1=NN2C(=N)/C(=C\c3ccc(SCc4ccco4)o3)C(=O)N=C2S1 | inactive: 13.4% | 
12 | COc1ccc(CNc2ccnc(-c3ccccc3OC)n2)c(OC)c1 | inconclusive: -27.3% | 
13 | Cc1nc(SCc2ccccc2F)c2cnn(-c3ccccc3)c2n1 |  | inconclusive: 11.2 µM [falling, partial curve]
14 | Cc1ccc(NS(=O)(=O)c2cc(NC(=O)C(C)Oc3ccccc3)ccc2C)c(C)c1 (configuration not stated) |  | inconclusive: 35.5 µM [falling, single point]
15 | Clc1ccc(C[n+]2cc(-c3ccccc3)n3c2CCC3)cc1Cl |  | inconclusive: 11.2 µM [falling, partial curve]
16 | CCOc1ccc(Cn2c(CNS(=O)(=O)c3cccs3)nc3cccnc32)cc1 | inactive: 4.97% [at 46 µM] | 
17 | CC(=O)C1=C(O)C(=O)N(CCc2c[nH]c3ccccc23)C1c1ccc(C)cc1 (configuration not stated) | inconclusive: 3.92% [at 46 µM] | 
18 | Cc1cc(C)cc(N(C)S(=O)(=O)c2nnc(NC(=O)COc3ccc(Cl)cc3)s2)c1 | inconclusive: -24.7% [at 46 µM] | 
19 | O=C(Cc1ccc([N+](=O)[O-])cc1)Nc1ccc(Cl)cc1 | inconclusive: -13.7% [at 46 µM] | 
20 | COCCNc1nc2nonc2nc1N(C)Cc1cccc2cnccc12 | inactive: 12.8% [at 46 µM] | 
21 | COc1ccc(NS(=O)(=O)c2cc(Cl)ccc2Cl)cc1S(=O)(=O)N1CCCCC1 | inconclusive: 5.92% [at 46 µM] | 
22 | O=C(CSc1cc(Cl)ccc1Cl)NC1CCCc2ccccc21 (configuration not stated) | inconclusive: 14.3% | 
23 | Cc1ccc(C)c(-n2c(N)c(C(N)=O)sc2=S)c1 | inactive: 6.25% | 
24 | CC(C)NC(=S)N/N=C/c1cc(Br)ccc1O |  | inconclusive: 22.4 µM [fluorescent, partial curve]
25 | COc1ccc(CN2CN=C(Nc3nc4ccccc4s3)NC2)cc1 | inconclusive: -5.33% | 
26 | CCOC(=O)C1CCCN(C(=O)CN2C(=O)/C(=C/c3ccc(OC)cc3)Oc3ccccc32)C1 (configuration not stated) | inconclusive: -34.6% | 

Molecules from the list above that have a nitro group on carbon:
Row | Compound | ratio change, negative = inhibition | Potency
3 | CC(C)CC(=O)NC(Nc1ccc([N+](=O)[O-])cc1)C(Cl)(Cl)Cl (configuration not stated) | inconclusive: -28.6% | 
10 | COc1cccc(CNc2ccc([N+](=O)[O-])cc2C)c1 | inconclusive: 22.8% [at 46 µM] | 
19 | O=C(Cc1ccc([N+](=O)[O-])cc1)Nc1ccc(Cl)cc1 | inconclusive: -13.7% [at 46 µM] | 

(cont.)

Row | Compound | ratio change, negative = inhibition | Potency
27 | NS(=O)(=O)c1ccc(Cl)c(S(N)(=O)=O)c1 | inactive: 3.22% | 
28 | O=c1[nH]c2ccc(Cl)cc2c(=O)n1Cc1ccco1 | inactive: 0.926% | 
29 | NS(=O)(=O)c1cccc(NC(=O)COC(=O)c2cc(-c3ccc(Cl)cc3)nc3ccccc23)c1 | inconclusive: -10.7% | 
30 | CCOC(=O)C(NC(=O)Nc1ccc(Cl)cn1)(Oc1ccc(F)cc1)C(F)(F)F (configuration not stated) | inconclusive: -8.4% | 
31 | O=C(N/N=C/c1ccc2c(c1)OCO2)C(=O)Nc1ccc2ccccc2c1 | inconclusive: 28.7% [at 9.22 µM] | 
32 | CCOc1ccc(N2CC(NC(=O)c3cc4ccccc4o3)CC2=O)cc1 (configuration not stated) | inactive: 11% [at 46 µM] | 
33 | Clc1ccc(Cn2nnc(-c3ccc(N4CCOCC4)cc3)n2)cc1 | inconclusive: -37.8% | 
34 | COC(=O)c1cc(=O)c(O)c2c(O)c(O)ccc2c1 |  | inconclusive: 35.5 µM [cytotoxic, single point]
35 | O=C(CCc1nnc(CCCCc2ccccc2)o1)N1CCC(N2CCCC2)CC1 | inconclusive: 14% [at 46 µM] | 
36 | Cc1ccc(-c2nc(C(=O)Nc3cccc(C#N)c3)c3n2CCCCC3)cc1 | inconclusive: 8.34% [at 46 µM] | 
37 | CN1N=C(C(C)(C)C)CSC1=Nc1ccccc1 | inconclusive: 10.1% [at 46 µM] | 
38 | O=C(Nc1ccc(F)cc1)C1CCCO1 (configuration not stated) | inconclusive: 21.4% [at 46 µM] | 
39 | O=C(O)c1cc(=O)[nH]c2c(Cl)cccc12 | inconclusive: 5.06% [at 46 µM] | 
40 | CCc1cccc(C)c1NC(=O)NC1COc2ccccc2C1 (configuration not stated) | inconclusive: 8.07% [at 46 µM] | 
41 | CCc1nnc(NC(=O)CSc2ncc(-c3ccccc3)n2C)s1 | inconclusive: 10.1% | 
42 | CCOC(=O)c1ccccc1NC(=O)c1c(O)c2ccccc2n(CC)c1=O | inconclusive: -41.4% | 
43 | O=C(NC(=S)Nc1cccc(Cl)c1N1CCCCC1)c1cccs1 | inactive: 15.6% | 
44 | CCOC(=O)c1cc2c(ccc3ccccc32)oc1=O | inconclusive: 9.46% [at 46 µM] | 
45 | O=C(CCCSc1ccccc1)Nc1nc(-c2ccccn2)cs1 |  | inconclusive: 31.6 µM [falling, single point]
46 | CNC(=O)CSCc1c(Cl)cccc1Cl | inactive: 5.53% | 
47 | CCOC(=O)N/N=C/c1ccccc1OCc1ccc(Cl)cc1 | inconclusive: -42.9% | 
48 | [O-]/C(=C(\C(=S)Nc1cccc2ccccc12)[n+]1ccccc1)c1ccc(Cl)s1 | inactive: -23% | 
49 | O=C(CCn1c(=O)[nH]c2ccccc2c1=O)N1CCN(c2cccc(C(F)(F)F)c2)CC1 | inconclusive: -17.6% | 
50 | O=C(c1ccc(Br)cc1)C1CCc2occc2C1=O (configuration not stated) | inconclusive: -0.751% | 
51 | O=C(N/N=C/c1ccc(N2CCCCC2)o1)C(O)(c1ccccc1)c1ccccc1 | inactive: 4.69% | 
52 | CC(=O)Nc1ccc(S(=O)(=O)NCC2CCC(C(=O)N3CCCCCC3)CC2)cc1 (configuration not stated) | inactive: 0.0882% | 
